Measurements taken from article PMC11079487.
For at least one entry, the source does not settle the construct or the ends of the probe. At least one verdict was read from the data and is not stated in words by the source. Where a protein sequence is shown, tags need not be part of it.

Target: T1, MdbZIP44 (Malus domestica 'Oregon Spur Delicious') (UniProt A0A498J4E9)
T1 sequence (looked up, limits assumed): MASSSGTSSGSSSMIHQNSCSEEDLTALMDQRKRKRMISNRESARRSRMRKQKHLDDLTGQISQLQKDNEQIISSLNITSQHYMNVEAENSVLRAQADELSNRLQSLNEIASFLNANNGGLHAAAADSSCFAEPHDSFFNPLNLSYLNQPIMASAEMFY
Test: EMSA
Settings: unlabeled same-sequence probe competes; Binding 25°C, 30 min; 6% native PAGE in 0.5x TBE, 4°C, 1 h; binding buffer, salt and pH not stated; recombinant protein; protein details: His (pET-32a); label: 5'-biotin

AAATGGACACGTGGGCAGGGA (double strand) [Mdα-GP2 promoter G-box probe (assigned to Mdα-GP2-G1)]
binding result: binds
